In patent US20140322241A1:
No constants are given. Whether binding was seen depends on the method and setting. In cells and extracts the contact can be indirect. Some binding calls cover weakened binding; strength is not graded here.

Protein sequences, listed by entry. Tags and fused reporters are not part of them. Residues count along the entry.
UniProt P04114, residues 28-1569: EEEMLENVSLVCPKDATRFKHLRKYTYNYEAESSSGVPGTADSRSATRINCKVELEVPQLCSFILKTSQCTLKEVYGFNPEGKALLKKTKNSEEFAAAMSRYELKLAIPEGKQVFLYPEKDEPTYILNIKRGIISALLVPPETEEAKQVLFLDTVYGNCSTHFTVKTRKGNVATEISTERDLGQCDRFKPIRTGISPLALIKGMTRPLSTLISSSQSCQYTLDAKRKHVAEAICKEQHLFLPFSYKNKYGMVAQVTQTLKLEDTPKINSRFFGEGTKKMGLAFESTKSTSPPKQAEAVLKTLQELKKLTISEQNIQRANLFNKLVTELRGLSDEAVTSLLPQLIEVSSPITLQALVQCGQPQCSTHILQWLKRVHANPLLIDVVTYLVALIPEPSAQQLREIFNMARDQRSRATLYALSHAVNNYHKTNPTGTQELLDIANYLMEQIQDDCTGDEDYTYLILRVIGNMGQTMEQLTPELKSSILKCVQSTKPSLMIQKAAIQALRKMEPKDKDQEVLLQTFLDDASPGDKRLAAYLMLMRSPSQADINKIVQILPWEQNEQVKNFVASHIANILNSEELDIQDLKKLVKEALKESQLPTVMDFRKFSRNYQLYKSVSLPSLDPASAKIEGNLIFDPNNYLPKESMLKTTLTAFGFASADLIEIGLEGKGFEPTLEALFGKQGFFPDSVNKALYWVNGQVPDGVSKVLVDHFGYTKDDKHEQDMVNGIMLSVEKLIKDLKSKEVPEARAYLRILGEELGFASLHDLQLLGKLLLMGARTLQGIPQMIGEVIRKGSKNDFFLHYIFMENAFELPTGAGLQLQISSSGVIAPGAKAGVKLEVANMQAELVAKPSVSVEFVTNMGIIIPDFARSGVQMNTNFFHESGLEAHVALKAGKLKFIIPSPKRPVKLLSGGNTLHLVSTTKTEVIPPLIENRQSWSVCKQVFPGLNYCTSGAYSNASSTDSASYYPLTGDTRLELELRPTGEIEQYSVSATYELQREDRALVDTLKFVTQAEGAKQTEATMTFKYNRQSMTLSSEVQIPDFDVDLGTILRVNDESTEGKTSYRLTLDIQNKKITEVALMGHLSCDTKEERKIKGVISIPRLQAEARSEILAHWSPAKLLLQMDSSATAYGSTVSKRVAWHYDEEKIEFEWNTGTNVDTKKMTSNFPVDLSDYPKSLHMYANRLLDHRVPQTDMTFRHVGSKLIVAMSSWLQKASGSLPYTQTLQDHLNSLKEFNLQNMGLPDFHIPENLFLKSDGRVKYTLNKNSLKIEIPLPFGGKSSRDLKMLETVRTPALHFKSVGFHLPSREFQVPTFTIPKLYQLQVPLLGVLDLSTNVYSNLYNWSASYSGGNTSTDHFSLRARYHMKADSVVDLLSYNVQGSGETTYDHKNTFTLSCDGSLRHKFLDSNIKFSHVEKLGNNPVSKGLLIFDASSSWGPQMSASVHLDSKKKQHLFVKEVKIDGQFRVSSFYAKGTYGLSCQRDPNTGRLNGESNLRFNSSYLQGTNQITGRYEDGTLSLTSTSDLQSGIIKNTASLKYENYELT

Molecular target: ApoB34 (human apolipoprotein B truncated form) (human) (UniProt P04114)
Test: co-immunoprecipitation with anti-apoB antibody from lysate of 35S-labelled HEK293 cells co-transfected with ApoB34 and Huh7MTP; SDS-PAGE and phosphorimager

binding: binds
B1: Huh7MTP (human microsomal triglyceride transfer protein cloned from Huh7 hepatoma cell RNA) (protein, UniProt P55157 19-894, looked up)
chain: VKGHTTGLSLNNDRLYKLTYSTEVLLDRGKGKLQDSVGYRISSNVDVALLWRNPDGDDDQLIQITMKDVNVENVNQQRGEKSIFKGKSPSKIMGKENLEALQRPTLLHLIHGKVKEFYSYQNEAVAIENIKRGLASLFQTQLSSGTTNEVDISGNCKVTYQAHQDKVIKIKALDSCKIARSGFTTPNQVLGVSSKATSVTTYKIEDSFVIAVLAEETHNFGLNFLQTIKGKIVSKQKLELKTTEAGPRLMSGKQAAAIIKAVDSKYTAIPIVGQVFQSHCKGCPSLSELWRSTRKYLQPDNLSKAEAVRNFLAFIQHLRTAKKEEILQILKMENKEVLPQLVDAVTSAQTSDSLEAILDFLDFKSDSSIILQERFLYACGFASHPNEELLRALISKFKGSIGSSDIRETVMIITGTLVRKLCQNEGCKLKAVVEAKKLILGGLEKAEKKEDTRMYLLALKNALLPEGIPSLLKYAEAGEGPISHLATTALQRYDLPFITDEVKKTLNRIYHQNRKVHEKTVRTAAAAIILNNNPSYMDVKNILLSIGELPQEMNKYMLAIVQDILRFEMPASKIVRRVLKEMVAHNYDRFSRSGSSSAYTGYIERSPRSASTYSLDILYSGSGILRRSNLNIFQYIGKAGLHGSQVVIEAQGLEALIAATPDEGEENLDSYAGMSAILFDVQLRPVTFFNGYSDLMSKMLSASGDPISVVKGLILLIDHSQELQLQSGLKANIEVQGGLAIDISGAMEFSLWYRESKTRVKNRVTVVITTDITVDSSFVKAGLETSTETEAGLEFISTVQFSQYPFLVCMQMDKDEAPFRQFEKKYERLSTGRGYVSQKRKESVLAGCEFPLHQENSEMCKVVFAPQPDSTSSGWF
